Source: the supplement of paper PMC10849652
Some of the results follow.

Amino acid sequences for entries named in this document (tags omitted). A change or cut given only in a name is not applied to a line headed by its entry.
UniProt Q96QB1: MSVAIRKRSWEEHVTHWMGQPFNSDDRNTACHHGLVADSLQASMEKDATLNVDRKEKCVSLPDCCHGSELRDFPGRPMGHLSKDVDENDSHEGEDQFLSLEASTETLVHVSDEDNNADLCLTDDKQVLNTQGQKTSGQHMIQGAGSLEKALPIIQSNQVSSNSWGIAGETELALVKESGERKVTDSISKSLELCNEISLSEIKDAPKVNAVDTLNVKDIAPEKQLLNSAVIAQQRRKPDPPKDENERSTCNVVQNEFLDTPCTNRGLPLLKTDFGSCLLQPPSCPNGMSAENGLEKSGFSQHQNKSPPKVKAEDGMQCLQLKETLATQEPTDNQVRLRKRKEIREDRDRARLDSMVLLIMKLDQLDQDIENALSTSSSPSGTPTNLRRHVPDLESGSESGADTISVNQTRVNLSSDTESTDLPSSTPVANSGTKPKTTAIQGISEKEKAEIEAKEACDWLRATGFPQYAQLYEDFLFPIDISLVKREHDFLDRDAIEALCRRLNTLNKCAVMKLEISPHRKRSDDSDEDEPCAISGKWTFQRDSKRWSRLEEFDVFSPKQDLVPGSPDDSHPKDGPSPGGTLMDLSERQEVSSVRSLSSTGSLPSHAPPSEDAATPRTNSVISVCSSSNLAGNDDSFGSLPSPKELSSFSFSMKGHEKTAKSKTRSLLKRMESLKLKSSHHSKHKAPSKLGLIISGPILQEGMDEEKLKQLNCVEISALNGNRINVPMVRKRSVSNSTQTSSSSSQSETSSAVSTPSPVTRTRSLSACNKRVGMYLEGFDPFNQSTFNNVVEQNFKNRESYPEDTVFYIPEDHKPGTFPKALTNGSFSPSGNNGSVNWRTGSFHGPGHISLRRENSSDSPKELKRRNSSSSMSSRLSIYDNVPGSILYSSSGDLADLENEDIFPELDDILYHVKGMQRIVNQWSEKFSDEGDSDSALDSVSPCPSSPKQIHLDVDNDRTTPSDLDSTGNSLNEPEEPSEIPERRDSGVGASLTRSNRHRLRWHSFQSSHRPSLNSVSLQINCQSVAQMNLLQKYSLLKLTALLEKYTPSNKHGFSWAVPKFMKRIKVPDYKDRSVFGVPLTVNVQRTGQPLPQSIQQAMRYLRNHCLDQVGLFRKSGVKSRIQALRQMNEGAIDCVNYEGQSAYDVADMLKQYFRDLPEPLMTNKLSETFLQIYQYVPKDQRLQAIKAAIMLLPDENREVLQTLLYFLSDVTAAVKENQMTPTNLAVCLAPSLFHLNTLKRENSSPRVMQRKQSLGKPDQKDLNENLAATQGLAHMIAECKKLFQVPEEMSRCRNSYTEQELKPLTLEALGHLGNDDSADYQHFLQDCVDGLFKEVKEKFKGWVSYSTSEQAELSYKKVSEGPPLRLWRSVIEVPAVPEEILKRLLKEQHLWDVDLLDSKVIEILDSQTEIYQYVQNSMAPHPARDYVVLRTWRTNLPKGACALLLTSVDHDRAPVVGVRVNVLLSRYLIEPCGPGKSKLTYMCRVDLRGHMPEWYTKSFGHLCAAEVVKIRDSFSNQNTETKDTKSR
UniProt P98153: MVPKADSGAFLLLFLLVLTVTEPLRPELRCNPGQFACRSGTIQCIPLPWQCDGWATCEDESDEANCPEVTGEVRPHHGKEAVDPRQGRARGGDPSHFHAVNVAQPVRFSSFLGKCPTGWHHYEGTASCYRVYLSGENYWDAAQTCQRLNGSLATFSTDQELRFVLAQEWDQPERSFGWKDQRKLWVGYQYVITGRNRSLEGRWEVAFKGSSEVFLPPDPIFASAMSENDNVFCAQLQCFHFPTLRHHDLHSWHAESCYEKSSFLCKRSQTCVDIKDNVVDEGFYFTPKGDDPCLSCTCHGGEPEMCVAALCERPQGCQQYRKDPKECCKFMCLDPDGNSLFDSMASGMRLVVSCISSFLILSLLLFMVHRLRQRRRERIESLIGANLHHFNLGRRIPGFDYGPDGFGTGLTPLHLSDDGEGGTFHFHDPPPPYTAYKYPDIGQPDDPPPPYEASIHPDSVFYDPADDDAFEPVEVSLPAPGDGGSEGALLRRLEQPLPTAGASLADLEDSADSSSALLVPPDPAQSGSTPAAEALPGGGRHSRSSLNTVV
UniProt Q96EY1: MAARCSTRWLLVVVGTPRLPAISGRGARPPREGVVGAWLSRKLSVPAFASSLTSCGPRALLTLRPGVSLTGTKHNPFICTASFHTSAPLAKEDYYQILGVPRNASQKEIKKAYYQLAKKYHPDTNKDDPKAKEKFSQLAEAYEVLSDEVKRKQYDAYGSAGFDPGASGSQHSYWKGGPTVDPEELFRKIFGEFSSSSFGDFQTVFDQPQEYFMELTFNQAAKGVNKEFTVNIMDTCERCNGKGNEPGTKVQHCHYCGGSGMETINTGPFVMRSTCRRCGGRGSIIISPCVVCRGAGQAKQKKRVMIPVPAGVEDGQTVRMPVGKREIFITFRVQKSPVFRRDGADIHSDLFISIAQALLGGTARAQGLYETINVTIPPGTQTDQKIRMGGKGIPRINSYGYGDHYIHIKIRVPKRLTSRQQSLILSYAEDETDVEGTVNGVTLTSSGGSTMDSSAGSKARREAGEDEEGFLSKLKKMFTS
UniProt Q9BY27: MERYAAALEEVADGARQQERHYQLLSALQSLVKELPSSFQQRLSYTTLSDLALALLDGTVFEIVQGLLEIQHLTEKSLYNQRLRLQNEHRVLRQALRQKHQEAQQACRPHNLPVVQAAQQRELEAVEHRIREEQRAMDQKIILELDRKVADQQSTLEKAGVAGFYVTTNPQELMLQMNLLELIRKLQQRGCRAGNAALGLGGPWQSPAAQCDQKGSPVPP
UniProt Q96HY7: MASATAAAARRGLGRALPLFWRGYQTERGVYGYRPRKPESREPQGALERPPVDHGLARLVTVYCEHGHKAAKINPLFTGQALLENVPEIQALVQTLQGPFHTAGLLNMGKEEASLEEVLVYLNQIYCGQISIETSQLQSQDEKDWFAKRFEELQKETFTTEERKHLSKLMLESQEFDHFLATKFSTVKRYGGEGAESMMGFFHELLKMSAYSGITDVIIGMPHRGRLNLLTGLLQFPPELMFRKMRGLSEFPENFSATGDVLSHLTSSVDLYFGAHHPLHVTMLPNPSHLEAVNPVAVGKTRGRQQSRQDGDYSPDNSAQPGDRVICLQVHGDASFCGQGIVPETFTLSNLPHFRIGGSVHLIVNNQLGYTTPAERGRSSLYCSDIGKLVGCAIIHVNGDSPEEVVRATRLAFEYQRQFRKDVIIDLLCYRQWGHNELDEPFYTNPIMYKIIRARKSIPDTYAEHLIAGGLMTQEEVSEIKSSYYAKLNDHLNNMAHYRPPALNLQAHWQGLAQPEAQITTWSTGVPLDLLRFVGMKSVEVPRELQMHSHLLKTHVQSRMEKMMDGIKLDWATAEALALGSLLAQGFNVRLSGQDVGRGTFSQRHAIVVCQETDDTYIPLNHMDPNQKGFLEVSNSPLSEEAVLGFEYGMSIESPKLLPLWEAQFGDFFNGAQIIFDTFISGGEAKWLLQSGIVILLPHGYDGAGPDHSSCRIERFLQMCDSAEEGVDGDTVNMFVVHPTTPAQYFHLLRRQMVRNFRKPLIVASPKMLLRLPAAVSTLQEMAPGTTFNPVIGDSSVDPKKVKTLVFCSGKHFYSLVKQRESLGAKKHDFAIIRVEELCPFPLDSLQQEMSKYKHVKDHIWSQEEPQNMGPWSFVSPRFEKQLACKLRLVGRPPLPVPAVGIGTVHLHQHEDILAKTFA
UniProt P52429: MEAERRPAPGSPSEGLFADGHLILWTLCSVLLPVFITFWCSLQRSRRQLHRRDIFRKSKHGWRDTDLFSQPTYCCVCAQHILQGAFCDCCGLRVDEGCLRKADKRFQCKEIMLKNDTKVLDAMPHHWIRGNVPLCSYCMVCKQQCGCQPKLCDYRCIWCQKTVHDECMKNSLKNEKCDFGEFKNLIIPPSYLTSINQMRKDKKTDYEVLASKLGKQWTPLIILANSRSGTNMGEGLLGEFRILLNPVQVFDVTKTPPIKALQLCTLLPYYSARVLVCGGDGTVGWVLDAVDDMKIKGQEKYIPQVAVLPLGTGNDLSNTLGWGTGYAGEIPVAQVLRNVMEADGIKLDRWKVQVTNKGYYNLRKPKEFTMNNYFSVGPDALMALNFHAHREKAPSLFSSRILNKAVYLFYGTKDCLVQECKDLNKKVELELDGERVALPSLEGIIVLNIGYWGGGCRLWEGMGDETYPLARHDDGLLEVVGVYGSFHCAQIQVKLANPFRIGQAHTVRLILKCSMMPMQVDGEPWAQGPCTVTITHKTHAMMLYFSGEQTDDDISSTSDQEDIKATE
UniProt Q96DA6: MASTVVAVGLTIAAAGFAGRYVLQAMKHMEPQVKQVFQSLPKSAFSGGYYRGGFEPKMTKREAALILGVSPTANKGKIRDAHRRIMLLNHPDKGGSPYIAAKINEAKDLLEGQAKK
UniProt Q9UBS3: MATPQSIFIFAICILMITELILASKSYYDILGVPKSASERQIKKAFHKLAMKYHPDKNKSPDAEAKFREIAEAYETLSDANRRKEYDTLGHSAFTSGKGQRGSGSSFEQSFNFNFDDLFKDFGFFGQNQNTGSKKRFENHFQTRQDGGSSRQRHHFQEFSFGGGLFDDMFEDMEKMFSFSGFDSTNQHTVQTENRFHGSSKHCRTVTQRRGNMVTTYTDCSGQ
UniProt P50570: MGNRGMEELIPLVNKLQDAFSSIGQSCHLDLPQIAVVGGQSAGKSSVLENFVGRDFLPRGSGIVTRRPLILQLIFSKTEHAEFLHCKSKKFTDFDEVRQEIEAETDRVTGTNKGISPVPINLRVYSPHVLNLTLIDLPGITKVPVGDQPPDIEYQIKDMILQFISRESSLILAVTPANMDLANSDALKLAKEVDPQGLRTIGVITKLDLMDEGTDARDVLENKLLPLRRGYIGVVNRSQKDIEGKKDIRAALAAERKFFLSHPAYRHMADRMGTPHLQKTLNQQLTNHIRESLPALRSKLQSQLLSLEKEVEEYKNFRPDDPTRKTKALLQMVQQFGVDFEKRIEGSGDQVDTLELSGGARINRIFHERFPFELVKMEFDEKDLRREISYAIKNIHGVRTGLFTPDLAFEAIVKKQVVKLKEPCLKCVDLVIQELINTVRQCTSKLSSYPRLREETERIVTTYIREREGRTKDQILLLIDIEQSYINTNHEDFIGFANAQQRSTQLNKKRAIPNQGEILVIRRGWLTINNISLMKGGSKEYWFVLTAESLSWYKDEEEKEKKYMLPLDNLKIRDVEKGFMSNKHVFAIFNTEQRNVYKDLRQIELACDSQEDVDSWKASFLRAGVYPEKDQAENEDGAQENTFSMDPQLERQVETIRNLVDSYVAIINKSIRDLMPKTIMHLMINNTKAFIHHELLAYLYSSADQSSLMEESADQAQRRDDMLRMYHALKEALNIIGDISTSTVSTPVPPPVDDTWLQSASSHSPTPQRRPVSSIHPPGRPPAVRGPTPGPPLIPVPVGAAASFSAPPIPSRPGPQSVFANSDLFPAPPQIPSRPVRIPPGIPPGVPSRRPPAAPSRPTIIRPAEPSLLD
UniProt Q9Y2G8: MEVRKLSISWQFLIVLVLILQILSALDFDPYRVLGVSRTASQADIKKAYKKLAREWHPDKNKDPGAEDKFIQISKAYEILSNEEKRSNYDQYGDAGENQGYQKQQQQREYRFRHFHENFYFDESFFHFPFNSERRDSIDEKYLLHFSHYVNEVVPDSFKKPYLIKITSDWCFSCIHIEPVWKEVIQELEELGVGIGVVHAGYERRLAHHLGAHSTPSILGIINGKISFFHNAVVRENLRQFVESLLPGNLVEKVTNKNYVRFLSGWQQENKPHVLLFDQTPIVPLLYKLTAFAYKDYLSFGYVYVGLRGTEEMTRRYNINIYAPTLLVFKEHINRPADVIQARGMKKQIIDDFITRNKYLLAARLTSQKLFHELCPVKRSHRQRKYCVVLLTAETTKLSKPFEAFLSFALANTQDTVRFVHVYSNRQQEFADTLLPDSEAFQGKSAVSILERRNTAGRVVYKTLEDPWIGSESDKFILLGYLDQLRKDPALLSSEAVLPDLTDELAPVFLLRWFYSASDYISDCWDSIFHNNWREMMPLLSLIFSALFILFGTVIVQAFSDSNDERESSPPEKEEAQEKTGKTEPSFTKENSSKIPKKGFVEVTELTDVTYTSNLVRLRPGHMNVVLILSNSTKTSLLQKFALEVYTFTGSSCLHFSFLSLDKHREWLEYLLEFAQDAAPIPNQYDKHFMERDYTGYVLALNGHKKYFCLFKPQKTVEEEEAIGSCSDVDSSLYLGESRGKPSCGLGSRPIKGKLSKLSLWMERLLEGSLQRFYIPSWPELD
UniProt Q9H147: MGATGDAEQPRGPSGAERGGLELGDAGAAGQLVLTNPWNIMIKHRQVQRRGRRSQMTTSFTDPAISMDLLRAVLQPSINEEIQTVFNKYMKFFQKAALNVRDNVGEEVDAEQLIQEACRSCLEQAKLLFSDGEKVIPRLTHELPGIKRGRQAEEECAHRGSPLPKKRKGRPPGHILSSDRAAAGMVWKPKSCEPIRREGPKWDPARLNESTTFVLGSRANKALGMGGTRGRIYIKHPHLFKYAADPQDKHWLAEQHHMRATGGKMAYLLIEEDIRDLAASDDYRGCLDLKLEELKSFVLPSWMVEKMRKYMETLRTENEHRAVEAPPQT

How the values were obtained:
Assay in all cases: log2 fold change, soluble protein after heating vs DMSO (PISA); higher = thermal stabilisation; K562 lysate, 10 uM; active = over 0.2 and 3.5 SD of the protein, either way, in both replicates (recomputed)
[1] = compound: O=C1NC(=O)C(c2cnc3ccccn23)=C1c1cn2c3c(cc(F)cc13)CN(C(=O)N1CCCCC1)CC2
Summary of the method: (§1)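 A 30 min treatment with 10 μM compound was applied to crude K562 extract at 1 mg/mL protein in PBS pH 7.4 with 1 mM MgCl2. Heating for 3 min spanned 48°C-58°C, after which aliquots were pooled, adjusted to 0.5% NP-40 at 4°C and spun at 21,000xg for 90 min. TMTpro 16plex LC-MS/MS of the supernatant, with channel sums equalised, gave values recorded as log-two fold change in thermal stability against solvent controls, from duplicates.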

[2] = compound: c1cn2cc(-c3ccc4cn[nH]c4c3)nc(Nc3ccc(N4CCOCC4)cc3)c2n1 [entospletinib]
Summary of the method: as §1

[3] = compound: O=C(CCCCCCC(=O)Nc1ccccc1)NO [vorinostat]
Summary of the method: as §1

[4] = compound: O=C(O)c1ccc2c(c1)nc(Nc1cccc(Cl)c1)c1ccncc12 [silmitasertib]
Summary of the method: as §1

[5] = compound: NCC(=O)Nc1ccc(-n2nc(C(F)(F)F)cc2-c2ccc3c(ccc4ccccc43)c2)cc1
Summary of the method: as §1

Target | log2 fold change [1] | log2 fold change [2] | log2 fold change [3] | log2 fold change [4] | log2 fold change [5]
DMD isoform 14 (UniProt P11532) | inactive: 0.05 | – | – | – | –
DLC1 (UniProt Q96QB1) | inactive: 0.161 | inactive: -0.033 | – | – | –
DOP1A (UniProt Q5JWR5) | inactive: -0.049 | inactive: 0.049 | – | – | –
DOCK6 (UniProt Q96HP0) | – | – | inactive: -0.096 | inactive: -0.352 | –
DNMT3A (UniProt Q9Y6K1) | – | – | inactive: -0.187 | inactive: 0.148 | –
DNPEP (UniProt C9JBE1) | – | inactive: -0.088 | – | – | inactive: 0.179
DGCR2 (UniProt P98153) | – | inactive: -0.007 | inactive: 0.209 | inactive: 0.082 | inactive: 0.05
DNAJC19, A0A2R8Y839 | inactive: 0.072 | – | – | – | –
DNAJB1 (UniProt M0R128) | – | – | inactive: 0 | inactive: 0.203 | –
DNPEP (UniProt B9ZVU2) | inactive: 0.037 | inactive: -0.042 | inactive: 0.265 | inactive: 0.023 | –
DNM1 (UniProt Q05193) | inactive: 0.063 | – | inactive: -0.211 | inactive: 0.066 | –
DONSON (UniProt Q9NYP3) | inactive: 0.032 | – | active: -0.401 | inactive: -0.123 | –
DNMT3B (UniProt Q9UBC3) | – | inactive: 0.151 | – | – | inactive: -0.068
DOP1B (UniProt Q9Y3R5) | inactive: -0.06 | – | – | – | inactive: 0.014
DGLUCY isoform 2 (UniProt Q7Z3D6) | inactive: -0.116 | – | – | – | –
DNAJA3 isoform 2 (UniProt Q96EY1) | – | inactive: 0.077 | inactive: 0.128 | inactive: -0.005 | inactive: 0.084
DPAGT1 (UniProt Q9H3H5) | inactive: 0.031 | – | inactive: -0.033 | inactive: 0.044 | –
DGCR6L (UniProt Q9BY27) | inactive: 0.096 | – | – | – | –
DOCK7 (UniProt Q96N67) | inactive: -0.019 | inactive: -0.039 | active: -0.348 | inactive: 0.053 | inactive: 0.032
DNMT1 (UniProt P26358) | inactive: 0.028 | – | – | – | –

Target | log2 fold change [1] | log2 fold change [2] | log2 fold change [3] | log2 fold change [4] | log2 fold change [5]
DHTKD1 (UniProt Q96HY7) | inactive: -0.041 | – | inactive: -0.097 | inactive: 0.171 | –
DOK2 (UniProt O60496) | – | – | inactive: -0.459 | inactive: 0.001 | –
DHRS4L1 (UniProt P0CG22) | inactive: 0.027 | inactive: -0.033 | inactive: -0.091 | inactive: 0.222 | inactive: 0.208
DNAJB14 (UniProt H7C494) | inactive: -0.183 | – | – | – | –
DGKE (UniProt P52429) | – | inactive: -0.189 | inactive: -0.092 | inactive: 0.189 | inactive: -0.388
DNAJC19 (UniProt Q96DA6) | inactive: 0.036 | inactive: 0.018 | inactive: 0.143 | inactive: -0.01 | inactive: -0.039
DLX2 (UniProt Q07687) | – | – | inactive: -0.216 | inactive: -0.092 | –
DNAJB9 (UniProt Q9UBS3) | inactive: 0.009 | – | inactive: 0.078 | inactive: -0.078 | –
DGKA (UniProt P23743) | – | inactive: 0.054 | – | – | inactive: 0.015
DMBT1 isoform 6 (UniProt Q9UGM3) | – | inactive: 0.069 | – | – | inactive: -0.165
DNLZ (UniProt Q5SXM8) | – | – | inactive: 0.061 | inactive: 0.144 | –
DNM2 isoform 4 (UniProt P50570) | inactive: -0.014 | inactive: -0.02 | active: -0.826 | inactive: 0.047 | –
DHRS13 (UniProt Q6UX07) | inactive: -0.001 | – | active: 1.11 | inactive: 0.059 | –
DGKQ (UniProt P52824) | – | inactive: -0.135 | inactive: -0.249 | inactive: 0.11 | inactive: 0.104
DIPK1A (UniProt Q5T7M9) | – | inactive: -0.015 | – | – | –
DNAJC14 (UniProt Q6Y2X3) | – | inactive: -0.017 | – | – | –
DNM2 (UniProt P50570) | inactive: -0.021 | inactive: 0.014 | active: -0.27 | inactive: 0.061 | inactive: 0.011
DNAJC16 (UniProt Q9Y2G8) | inactive: 0.043 | – | – | – | –
DOK3 (UniProt Q7L591) | inactive: 0.032 | inactive: 0.039 | inactive: -0.028 | inactive: -0.017 | inactive: 0.153
DNTTIP1 (UniProt Q9H147) | – | inactive: -0.009 | inactive: -0.26 | inactive: 0.043 | inactive: -0.021

Complete entries from above:
DNAJC16 (UniProt Q9Y2G8) as listed: log2 fold change [1]: inactive: 0.043
DNAJB14 (UniProt H7C494) as listed: log2 fold change [1]: inactive: -0.183
DNTTIP1 (UniProt Q9H147) as listed: log2 fold change [2]: inactive: -0.009; log2 fold change [3]: inactive: -0.26; log2 fold change [4]: inactive: 0.043; log2 fold change [5]: inactive: -0.021
